PubChem BioAssay AID1671195 | Yale University – 2021

- Test: 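Regulators of LDL receptor activity judged by labelled LDL uptake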 (primary screen)
- Cells: human Huh7 hepatoma cells
- Reagent: siRNA pool against human genes, 18 nM
- Duration: about 2 to 2.5 days of knockdown, then 8 h LDL uptake
- Treatment: DiI-labelled LDL at 30 µg/ml for 8 h, in lipoprotein-deficient serum medium
- Read-out: 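Per-cell DiI-LDL intensity by automated imaging; well means scaled to the plate median and given as a robust z-score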
- Reading the numbers: robust z-score: higher = more LDL uptake after knockdown
- Rule for the call: 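Active when two or more replicates show a robust z-score above 2 or below -2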
The whole screen tested about 22,000 reagents; this is an unselected part. About 1,510 of them (6.9%) were called active. 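Active includes knockdowns raising or lowering LDL uptake; positive z-scores mean more uptake, negative mean less.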 Unmarked entries are inactive. No sequences are given here.

no.	gene	robust z-score, replicate 1	robust z-score, replicate 2	robust z-score, replicate 3
1	EFNA3 (ephrin A3)	-1.66	-1.2	-2.27
2	TCF7L2 (transcription factor 7 like 2)	-0.264	-0.851	-0.466
3	APBA3 (amyloid beta precursor protein binding family A member 3)	0.107	-0.32	-0.455
4	ZNF577 (zinc finger protein 577)	1.09	1.46	0.256
5	HOXB6 (homeobox B6)	0.376	0.596	0.9
6	WAS (WASP actin nucleation promoting factor)	-0.447	-0.324	0.759
7	KCNE1	0.77	0.461	0.85
8	MCM5 (minichromosome maintenance complex component 5)	-0.767	-0.0748	-0.711
9	NDUFA11 (NADH:ubiquinone oxidoreductase subunit A11)	1.53	0.993	0.243
10	FHL1 (four and a half LIM domains 1)	0.0275	-0.508	-0.611
11	CYP39A1 (cytochrome P450 family 39 subfamily A member 1)	0.363	0.475	0.903
12	DNAJC22 (DnaJ heat shock protein family (Hsp40) member C22)	-0.566	0.494	0.316
13	VEPH1 (ventricular zone expressed PH domain containing 1)	0.179	-0.535	0.0708
14	MAPKAPK5-AS1 (MAPKAPK5 antisense RNA 1)	1.2	1.21	1.12
15	LOC392238 (retired record)	-0.595	0.224	0.137
16	EPN1 (epsin 1)	1.37	0.867	0.869
17	USP3 (ubiquitin specific peptidase 3)	5.58 (active)	4.82	5.16
18	LOC441751 (retired record)	0.8	1.15	0.87
19	KLHL18 (kelch like family member 18)	5.21 (active)	4.51	5.31
20	TMEM38B (transmembrane protein 38B)	0.635	0.481	2.38
21	SOX14 (SRY-box transcription factor 14)	1.63	1.32	1.51
22	LOC441012 (retired record)	-0.137	0.15	-0.0595
23	GSPT2 (G1 to S phase transition 2)	0.0515	0.87	1.74
24	GRM3 (glutamate metabotropic receptor 3)	0.421	-0.832	0.265
25	LOC440421 (retired record)	-2.83 (active)	-2.71	-2.93
26	KARS1 (lysyl-tRNA synthetase 1)	0.905	1.03	1.8
27	OR52I1 (olfactory receptor family 52 subfamily I member 1)	0.108	-0.267	-0.212
28	VCAM1 (vascular cell adhesion molecule 1)	-1.92	-1.76	-1.46

Reagents listed so far marked active:
gene	robust z-score, replicate 1	robust z-score, replicate 2	robust z-score, replicate 3
USP3 (ubiquitin specific peptidase 3)	5.58 (active)	4.82	5.16
KLHL18 (kelch like family member 18)	5.21 (active)	4.51	5.31
LOC440421 (retired record)	-2.83 (active)	-2.71	-2.93
